Laboratory results as given in US8076367B2, “Benzimidazolylidene propane-1,3-dione derivative or salt thereof” (Astellas Pharma Inc., priority 2004, dated 2011).

Experiment: Measurement of blood concentration of a compound by ex vivo binding assay
Set-up: species or system Wistar male rat
Settings: B in μM divided by A in nM
Experimental: Each compound to be tested was dissolved or suspended in 0.5% methyl cellulose (MC) solution and was orally administered to Wistar male rat of 9 weeks of age (SLC Japan) at a dose of 10 mg/kg. Blood sample was collected after 2 hours of the administration to obtain serum.
Each serum sample was mixed with the same volume of methanol to remove protein and optionally diluted with an assay buffer, and then the ^125I-D-Trp^6-LHRH binding inhibition ratio was measured in the same manner as in Test Example 1. Using a separately prepared calibration curve on the concentration-binding inhibition of compounds to be tested, blood concentration of each compound (μM) was calculated from the binding inhibition ratio.

Which “(B)/(A) ratio of blood compound concentration (B) to GnRH receptor antagonism (A)” value (“(B)/(A) ratio” for short) does the source give for O=C(C(C(=O)c1cccc(C(O)CO)c1)=C1Nc2ccccc2N1)c1cc(F)cc(Cl)c1 (stereo not drawn) [Ex 2-3] here?
The value was 8.7.

For O=C(C(C(=O)c1cc(F)c(F)c(F)c1)=C1Nc2ccccc2N1)c1cccc(C(O)CO)c1 (stereo not drawn) [Ex 2-4], which “(B)/(A) ratio” value is on record?
Its value is 7.7.

With O=C(C(C(=O)c1cccc(C(O)CO)c1)=C1Nc2ccc(F)cc2N1)c1cc(F)cc(F)c1 (stereo not drawn) [Ex 2-5] as the compound, how does the “(B)/(A) ratio” value read?
Its value is 8.2.

Which “(B)/(A) ratio” value does the source give for O=C(C(C(=O)c1cccc(C(O)CO)c1)=C1Nc2ccccc2N1)c1cccc(F)c1 (stereo not drawn) [Ex 2-7] here?
The value was 8.7.

With O=C(C(C(=O)c1cccc(C(O)CO)c1)=C1Nc2cc(F)c(Cl)cc2N1)c1cc(F)cc(F)c1 (stereo not drawn) [Ex 2-12] as the compound, how does the “(B)/(A) ratio” value read?
Its value is 6.1.

With O=C(C(C(=O)c1cc(C(O)CO)ccc1F)=C1Nc2ccccc2N1)c1cc(F)cc(F)c1 (stereo not drawn) [Ex 2-20] as the compound, how does the “(B)/(A) ratio” value read?
Its value is 5.7.

With O=C(C(C(=O)c1cc(F)cc(F)c1F)=C1Nc2ccccc2N1)c1cccc(C(O)CO)c1 (stereo not drawn) [Ex 2-48] as the compound, how does the “(B)/(A) ratio” value read?
The value was 9.8.

Which “(B)/(A) ratio” value does the source give for O=C(C(C(=O)c1cccc(C(O)CO)c1)=C1Nc2ccccc2N1)c1cccc(Cl)c1 (stereo not drawn) [Ex 2-50] here?
Its value is 7.3.

With O=C(C(C(=O)c1cccc([C@@H](O)CO)c1)=C1Nc2ccccc2N1)c1cccc(F)c1 [Ex 4-1, 2-(1,3-dihydro-2H-benzimidazol-2-ylidene)-1-{3-[(1R)-1,2-dihydroxyethyl]phenyl}-3-(3-fluorophenyl)propane-1,3-dione] as the compound, how does the “(B)/(A) ratio” value read?
Its value is 14.6.

For O=C(C(C(=O)c1cccc([C@@H](O)CO)c1F)=C1Nc2ccccc2N1)c1cccc(F)c1 [Ex 4-4], which “(B)/(A) ratio” value is on record?
Its value is 10.4.

For Cc1c(C(=O)C(C(=O)c2cc(F)cc(F)c2)=C2Nc3ccccc3N2)cccc1[C@@H](O)CO [Ex 4-5], which “(B)/(A) ratio” value is on record?
Its value is 31.2.

With CCCCc1c(C(=O)C(C(=O)c2cccc(F)c2)=C2Nc3ccccc3N2)cccc1[C@@H](O)CO [Ex 4-8] as the compound, how does the “(B)/(A) ratio” value read?
The value was 22.1.

Which “(B)/(A) ratio” value does the source give for O=C(C(C(=O)c1cccc([C@@H](O)CO)c1Cl)=C1Nc2ccccc2N1)c1cccc(Cl)c1 [Ex 4-15] here?
Its value is 19.0.

For O=C(C(C(=O)c1cccc([C@@H](O)CO)c1Cl)=C1Nc2ccccc2N1)c1cccc(F)c1 [Ex 4-21], which “(B)/(A) ratio” value is on record?
The value was 9.0.

With O=C(C(C(=O)c1ccc(F)c([C@@H](O)CO)c1)=C1Nc2ccccc2N1)c1cc(F)cc(F)c1 [Ex 4-22] as the compound, how does the “(B)/(A) ratio” value read?
The value was 16.7.

For Cc1c(C(=O)C(C(=O)c2cccc(Cl)c2)=C2Nc3ccccc3N2)cccc1[C@@H](O)CO [Ex 4-23], which “(B)/(A) ratio” value is on record?
The value was 6.2.

Which “(B)/(A) ratio” value does the source give for Cc1cccc(C(=O)C(C(=O)c2cccc([C@@H](O)CO)c2C)=C2Nc3ccccc3N2)c1 [Ex 4-25] here?
Its value is 9.9.

For Cc1c(C(=O)C(C(=O)c2ccccc2F)=C2Nc3ccccc3N2)cccc1[C@@H](O)CO [Ex 4-29], which “(B)/(A) ratio” value is on record?
Its value is 33.9.

With O=C(C(C(=O)c1cccc([C@@H](O)CO)c1Cl)=C1Nc2ccccc2N1)c1cc(F)cc(F)c1 [Ex 4-30] as the compound, how does the “(B)/(A) ratio” value read?
Its value is 15.0.

Which “(B)/(A) ratio” value does the source give for Cc1cccc(C(=O)C(C(=O)c2cccc([C@@H](O)CO)c2Cl)=C2Nc3ccccc3N2)c1 [Ex 4-32] here?
Its value is 5.6.

Which “(B)/(A) ratio” value does the source give for O=C(C(C(=O)c1cccc([C@@H](O)CO)c1F)=C1Nc2ccccc2N1)c1cc(F)cc(F)c1 [Ex 4-33] here?
Its value is 13.3.
